Part of at least one peptide drawing is inferred or uncertain, most often the ends. *1 amine or outer side, *2 acyl side, *3 side chain or, on linkers, in order; H or OH if unused. Where a SMILES comes first, the peptide text is derived from it. Bridges are numbered along the chain shown (N, C = ends). TBMB = c1c(C[*:1])cc(C[*:3])cc1C[*:2]
Target: MDM2 (res 2-125) (Homo sapiens, UniProt Q00987)
Experiment: Fluorescence anisotropy titration (intrinsic tryptophan fluorescence)
Settings: read-out: binding affinity as measured by fluorescence anisotropy; PEP48 derivatives against MDM2

Sequences of proteins named here, by UniProt entry; tags and fusion partners are left off. Residues count along the entry.
UniProt Q00987, 2-125: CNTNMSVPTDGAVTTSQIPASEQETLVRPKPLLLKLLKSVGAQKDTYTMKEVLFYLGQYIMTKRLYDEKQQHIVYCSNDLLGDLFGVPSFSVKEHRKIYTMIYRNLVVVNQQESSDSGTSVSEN

Question: `CSCC[C@@H]1NC(=O)[C@H](C(C)C)NC(=O)[C@H]([C@@H](C)O)NC(=O)[C@@H]2CCCN2C(=O)[C@@H]2CSCc3cc(cc(c3)CSC[C@H](NC(=O)[C@H](CC(=O)O)NC(=O)[C@H](CC(=O)O)NC(=O)[C@@H](N)CO)C(=O)N[C@@H](C(C)C)C(=O)N[C@@H](CCCNC(=N)N)C(=O)N[C@@H](Cc3ccccc3)C(=O)NCC(=O)N[C@@H](Cc3c[nH]c4ccccc34)C(=O)N[C@@H]([C@@H](C)O)C(=O)N2)CSC[C@@H](C(=O)NCC(=O)O)NC1=O` [PEP48-3s1] (H-SDDCVRFGWTCPTVMCG-OH; linker 4-11-16 via TBMB) was tested. Which Kd did it give?
Answer: The Kd was 27 to 100 nM.

— patent US9518081B2, “Peptide libraries” (BICYCLE THERAPEUTICS LIMITED, priority 2009, dated 2016)
